# Source: PubChem BioAssay AID1671190 (National Center for Advancing Translational Sciences (NCATS), 2021)
# Chains of the proteins cited; added tags and fusions are not shown.
# UniProt P18054, whole entry, looked up: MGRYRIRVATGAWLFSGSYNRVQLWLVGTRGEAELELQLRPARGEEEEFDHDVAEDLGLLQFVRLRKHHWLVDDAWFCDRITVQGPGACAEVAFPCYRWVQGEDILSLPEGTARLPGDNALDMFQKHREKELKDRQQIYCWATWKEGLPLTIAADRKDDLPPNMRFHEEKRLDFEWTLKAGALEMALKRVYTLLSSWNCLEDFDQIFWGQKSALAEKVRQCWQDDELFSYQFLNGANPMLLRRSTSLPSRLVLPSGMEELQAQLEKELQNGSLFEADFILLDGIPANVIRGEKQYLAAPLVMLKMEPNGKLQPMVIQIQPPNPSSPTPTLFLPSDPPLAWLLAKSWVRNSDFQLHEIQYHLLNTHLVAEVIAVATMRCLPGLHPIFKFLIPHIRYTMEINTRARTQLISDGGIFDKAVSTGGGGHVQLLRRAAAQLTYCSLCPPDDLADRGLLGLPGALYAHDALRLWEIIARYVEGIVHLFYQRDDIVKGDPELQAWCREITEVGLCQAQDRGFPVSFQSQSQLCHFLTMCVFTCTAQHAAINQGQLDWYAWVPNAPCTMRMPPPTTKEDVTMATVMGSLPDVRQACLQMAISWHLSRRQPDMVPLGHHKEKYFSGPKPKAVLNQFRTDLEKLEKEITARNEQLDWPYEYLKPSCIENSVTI
# Among all 580,000 compounds or so, about 6,100 (1.1%) were called active. The inconclusive results got no clear call from the source; some entries with a clear call stand among them for comparison. Calls come from the whole dose curve; as a rule, active = well fitted inhibition curve with a large enough effect; inconclusive = small, poorly fitted or top-dose-only effect, or another doubt; inactive = no such curve, though single readings can be large or run the other way. Where the call is inconclusive, the potency comes from a doubtful curve fit.
# Biological target: Polyunsaturated fatty acid lipoxygenase ALOX12 (Homo sapiens) (UniProt P18054)
# Test: Primary qHTS assay for inhibitors of human arachidonate 12S-lipoxygenase (ALOX12): Round 2
# Details: purified 12hLO, xylenol orange hydroperoxide absorbance; activity change, negative = inhibition: at 108 µM (top of the series) unless noted
# Summary of the method: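 Hydroperoxide product was detected by ferrous iron/xylenol orange as the 573 to 405 nm absorbance ratio. Arachidonic acid at 40 uM (final) was turned over for 30 min at room temperature by 150 nM human 12hLO, pH 7.0 Hepes buffer, after 15 min compound preincubation.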
# % is set by controls: 0 for no effect and ±100 for the full control effect; potency is the fitted concentration of half-maximal effect.
SMILES,Potency,"activity change, negative = inhibition"
Cc1cc(/C([O-])=C(/C(=S)Nc2ccccc2)[n+]2ccccc2)c(C)n1-c1ccccc1,"inconclusive: 56.2 µM [inhibitor, partial curve, poor fit]",
O=C(O)CC12CC3CC(C1)CC(n1ncc(NCC4CCCO4)c(Cl)c1=O)(C3)C2 (stereo not given),"inconclusive: 35.5 µM [inhibitor, partial curve, poor fit]",
C=CCSC1=N/C(=C\c2ccc(SC)cc2)C(=O)S1,"inconclusive: 0.251 µM [inhibitor, full curve, poor fit]",
Cc1ccc(S(=O)(=O)N2CCOCC2)cc1NC(=O)CSc1n[nH]c(N)n1,,inactive: -2.91%
O=C(c1ccc(-c2ccc(O)cc2)cc1)N1CCOC2(CNCCOC2)C1 (stereo not given),,inactive: 7.33%
COCCCn1c(SCCc2ccccc2)nc2cc(OC)c(OC)cc2c1=N,"inconclusive: 112 µM [inhibitor, single point]",
CCN(CCO)c1ccc(-n2c(N)c(C(=O)OC)c3nc4ccccc4nc32)cc1,"inconclusive: 35.5 µM [inhibitor, partial curve, poor fit]",
COc1ccc(CNC(=O)CCCn2nc([N+](=O)[O-])cc2C)cc1,,inactive: -13.2%
CCC1=NN(C(=O)c2ccccc2Br)C(O)(c2ccc(Br)cc2)C1 (stereo not given),,inactive: 1.33%
CCC(=O)N(C)C[C@H]1Oc2ncc(C#Cc3cccnc3)cc2C(=O)N([C@@H](C)CO)C[C@@H]1C,"inconclusive: 56.2 µM [inhibitor, partial curve, poor fit]",
N#Cc1ccc(C(=O)Nc2ccn(-c3ccccc3)n2)cc1,,inactive: 4.14%
C=C(C)Cn1c(CCNC(=O)C(C)C)nc2ccccc21,,inactive: 140% [at 57.4 µM]
COC(=O)c1ccc(NC(=O)CCc2nnc3ccc(NCc4ccco4)nn23)cc1,,inactive: 1.68%
CN1CCN(C(=O)Nc2cccc3ccccc23)CC1,,inactive: 10.9%
Cc1c(Cl)c(C(F)(F)F)nn1CC(=O)Nc1ccc(Cl)cc1,"inconclusive: 56.2 µM [inhibitor, partial curve, poor fit]",
CC1=C[C@@H](CNS(=O)(=O)Cc2ccccc2)[C@H](C(C)C)C[C@H]1CC(=O)N1CCOCC1,,inactive: 28.1%
COc1ccc(C2C=C(C34CC5CC(CC(C5)C3)C4)NC(=S)N2)cc1 (stereo not given),"inconclusive: 35.5 µM [inhibitor, partial curve, poor fit]",
COc1ccccc1C1(O)CCN(CCCn2c3ccccc3c3ccccc32)CC1,"inconclusive: 28.2 µM [inhibitor, single point]",
CN(C)CCC(=O)c1ccc2c(c1)OCO2,"inconclusive: 44.7 µM [inhibitor, partial curve, poor fit]",
Cc1cc(C(=O)NCc2ccc3c(c2)OCO3)c(C)o1,"inconclusive: 44.7 µM [inhibitor, single point]",
N#CC1=C(N)OC2=C(C(=O)CCC2)C1c1ccc(C(F)(F)F)cc1 (stereo not given),"inconclusive: 112 µM [inhibitor, single point]",
Fc1ccccc1CCNc1cc(Cl)nc2ccnn12,,inactive: 40.8% [at 176 µM]
Cc1ccccc1-c1nc(S(=O)(=O)c2ccccc2)c(N2CCCC2)o1,"inconclusive: 3.55 µM [inhibitor, full curve, poor fit]",

SMILES,Potency,"activity change, negative = inhibition"
CC(C)(C)c1csc(NC(=O)CSc2nc3ccccc3c(=O)[nH]2)n1,,inactive: -3.45%
CS(=O)(=O)N1CCN(C2Cc3ccccc3C2)CC1,,inactive: 15.8%
CN(C)C(CNC(=O)c1ccc(Br)cc1)c1ccco1 (stereo not given),"inconclusive: 112 µM [inhibitor, single point]",
CCOc1ccccc1NC(=O)C(C)Sc1nc(-c2ccccc2)c(C#N)c(=O)[nH]1 (stereo not given),"inconclusive: 100 µM [inhibitor, partial curve, poor fit]",
CCOC(=O)N1CCN(C(=O)C[C@@H]2C[C@@]3(C(=O)OCC)CCC=C3N(Cc3ccc4c(c3)OCO4)C2=O)CC1,"inconclusive: 14.1 µM [inhibitor, partial curve, poor fit]",
Cc1c(Cl)sn(-c2ccc(Cl)cc2)c1=O,active: 4.47 µM,
CCCNC(=O)c1ccc(Cl)cc1-n1cnnn1,"inconclusive: 12.6 µM [inhibitor, partial curve, poor fit]",
CN(CC(=O)Nc1ccccc1OC(F)F)S(=O)(=O)c1ccc(Cl)cc1,"inconclusive: 44.7 µM [inhibitor, partial curve, poor fit]",
O=C(O)CCCN1CCCCC1,"inconclusive: 39.8 µM [inhibitor, partial curve, poor fit]",
O=C1/C(=C\c2ccc(Br)o2)SC(=Nc2ccccc2)N1c1ccccc1,,inactive: 0%
O=C(N[C@@H](CO)[C@H](O)c1ccc([N+](=O)[O-])cc1)C(Cl)Cl,"inconclusive: 112 µM [inhibitor, single point]",
Cc1ccc(C(=O)Cn2cncn2)cc1,"inconclusive: 39.8 µM [inhibitor, partial curve, poor fit]",
O=C(NC1CC1)c1ccccc1OC1CN(Cc2cccc(C(F)(F)F)c2)C1,,inactive: 16.7%
COc1ccc(C2C(C(C)=O)=C(O)C(=O)N2CCO)c(OC)c1 (stereo not given),"inconclusive: 3.55 µM [inhibitor, full curve, poor fit]",
COCCn1nnnc1C(c1cccs1)N1CCN2CCCC2C1 (stereo not given),"inconclusive: 50.1 µM [inhibitor, partial curve, poor fit]",
Nc1ccc(-c2nc3c(ccc4ccccc43)[nH]2)cc1,,inactive: 0%
CCNC(=O)Cn1c(CO)cnc1SCc1ccccc1C,"inconclusive: 63.1 µM [inhibitor, partial curve, poor fit]",
O=C/C(=C\Nc1ccccn1)c1nc2ccccc2o1,,inactive: -19.4%
CC(=O)Nc1ccc(NC(=O)c2cc(S(=O)(=O)N3CCOCC3)c(Cl)cc2Cl)cc1,"inconclusive: 100 µM [inhibitor, single point]",
CC(=O)C1=C(O)C(=O)N(c2ccc(Br)cc2)C1c1ccc(Cl)cc1 (stereo not given),"inconclusive: 44.7 µM [inhibitor, partial curve, poor fit]",
CCn1cc(C2=NC(CCSC)CO2)c2ccccc21 (stereo not given),"inconclusive: 100 µM [inhibitor, single point]",
COc1ccc(CNC(=S)Nc2cccc(F)c2)cc1,"inconclusive: 50.1 µM [inhibitor, partial curve, poor fit]",

# Quoted from the results shown, 9 compounds:
SMILES,Potency,"activity change, negative = inhibition"
O=C(NC1CC1)c1ccccc1OC1CN(Cc2cccc(C(F)(F)F)c2)C1,,inactive: 16.7%
COc1ccc(C2C(C(C)=O)=C(O)C(=O)N2CCO)c(OC)c1 (stereo not given),"inconclusive: 3.55 µM [inhibitor, full curve, poor fit]",
COCCn1nnnc1C(c1cccs1)N1CCN2CCCC2C1 (stereo not given),"inconclusive: 50.1 µM [inhibitor, partial curve, poor fit]",
Nc1ccc(-c2nc3c(ccc4ccccc43)[nH]2)cc1,,inactive: 0%
CCNC(=O)Cn1c(CO)cnc1SCc1ccccc1C,"inconclusive: 63.1 µM [inhibitor, partial curve, poor fit]",
O=C/C(=C\Nc1ccccn1)c1nc2ccccc2o1,,inactive: -19.4%
CC(=O)Nc1ccc(NC(=O)c2cc(S(=O)(=O)N3CCOCC3)c(Cl)cc2Cl)cc1,"inconclusive: 100 µM [inhibitor, single point]",
CC(=O)C1=C(O)C(=O)N(c2ccc(Br)cc2)C1c1ccc(Cl)cc1 (stereo not given),"inconclusive: 44.7 µM [inhibitor, partial curve, poor fit]",
CCn1cc(C2=NC(CCSC)CO2)c2ccccc21 (stereo not given),"inconclusive: 100 µM [inhibitor, single point]",
